Test results: article PMC12203913

Tested on: UV-DDB (DDB1-DDB2) (Homo sapiens)
Experiment: EMSA
Details: 50x unlabeled undamaged competitor (200 nM), affinity significantly reduced; 5'-phosphate on strand 1; EMSA: 50 mM Tris-HCl pH 7.5, 100 mM NaCl, 0.1 mg/ml BSA, 1 mM DTT, 23°C, 45 min; recombinant protein; label: 5'-FAM on strand 2

TGCATGCGGCCGCTCTTCCCATGGTGCGATCGCTCTTCG (double strand) [undamaged 39 bp DNA (λ-I3_Dup / λ-I3_comp_FAM)]
binding result: binds more weakly

Construct, isoform or probe ends are uncertain for at least one entry. The comparison behind a weaker result is the experiment's own reference, which may not be listed here.
